Laboratory results from PMC11733299.
These are yes or no findings as the source states them, for the method shown. Some results given as binding are weak or reduced against the parent protein; the word gives no strength.

Tests used:
Assay in all cases: two-hybrid; classical GAL4 system; CNGC N and C termini in pGBK-T7, CPK1 in pGAD-T7; yeast AH109; growth on SD/-Leu-Trp-His-Ade
[1] = biological target: T1, CNGC14-N (aa1-101) in pGBK-T7 (Arabidopsis thaliana) (UniProt Q9SJA4)
T1 sequence: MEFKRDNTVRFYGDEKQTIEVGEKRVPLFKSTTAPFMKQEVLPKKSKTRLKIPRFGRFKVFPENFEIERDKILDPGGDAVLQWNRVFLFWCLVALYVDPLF

[2] = biological target: T2, CNGC5-C (aa413-717) in pGBK-T7 (Arabidopsis thaliana) (UniProt Q8RWS9)
T2 sequence: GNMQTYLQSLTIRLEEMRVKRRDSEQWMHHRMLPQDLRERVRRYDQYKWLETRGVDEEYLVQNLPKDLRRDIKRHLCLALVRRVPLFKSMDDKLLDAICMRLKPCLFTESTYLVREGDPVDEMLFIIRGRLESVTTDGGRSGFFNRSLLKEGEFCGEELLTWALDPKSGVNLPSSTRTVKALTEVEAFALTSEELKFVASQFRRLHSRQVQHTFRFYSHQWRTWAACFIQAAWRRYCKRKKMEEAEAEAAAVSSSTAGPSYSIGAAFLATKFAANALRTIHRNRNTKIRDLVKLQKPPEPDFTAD

[3] = biological target: T3, CNGC5-N (aa1-102) in pGBK-T7 (Arabidopsis thaliana) (UniProt Q8RWS9)
T3 sequence: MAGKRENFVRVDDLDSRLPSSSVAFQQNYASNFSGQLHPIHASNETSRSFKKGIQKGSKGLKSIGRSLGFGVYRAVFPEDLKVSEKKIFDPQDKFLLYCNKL

[4] = biological target: T4, CNGC6-C (aa429-747) in pGBK-T7 (Arabidopsis thaliana) (UniProt O82226)
T4 sequence: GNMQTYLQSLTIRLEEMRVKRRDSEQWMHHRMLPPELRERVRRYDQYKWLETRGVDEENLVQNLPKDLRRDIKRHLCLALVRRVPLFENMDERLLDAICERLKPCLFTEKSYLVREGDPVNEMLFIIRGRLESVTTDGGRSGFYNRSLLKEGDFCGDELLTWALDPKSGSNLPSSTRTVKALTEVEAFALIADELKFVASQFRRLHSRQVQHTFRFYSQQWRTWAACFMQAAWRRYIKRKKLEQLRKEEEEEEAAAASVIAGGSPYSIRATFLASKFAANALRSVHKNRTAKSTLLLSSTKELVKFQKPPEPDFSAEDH

[5] = biological target: T5, CNGC6-N (aa1-116) in pGBK-T7 (Arabidopsis thaliana) (UniProt O82226)
T5 sequence: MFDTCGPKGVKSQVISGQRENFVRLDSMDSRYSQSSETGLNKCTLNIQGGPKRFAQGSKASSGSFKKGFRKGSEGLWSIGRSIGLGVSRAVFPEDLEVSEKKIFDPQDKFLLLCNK

[6] = biological target: T6, CNGC9-C (aa428-733) in pGBK-T7 (Arabidopsis thaliana) (UniProt Q9M0A4)
T6 sequence: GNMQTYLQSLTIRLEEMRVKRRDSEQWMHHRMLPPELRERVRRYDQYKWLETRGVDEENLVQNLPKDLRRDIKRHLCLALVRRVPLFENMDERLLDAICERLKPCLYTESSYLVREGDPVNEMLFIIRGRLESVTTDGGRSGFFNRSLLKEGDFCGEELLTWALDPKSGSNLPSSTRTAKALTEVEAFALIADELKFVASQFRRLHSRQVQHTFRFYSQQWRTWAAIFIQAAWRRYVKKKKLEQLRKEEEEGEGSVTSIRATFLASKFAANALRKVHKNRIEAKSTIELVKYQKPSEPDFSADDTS

[7] = biological target: T7, CNGC9-N (aa1-117) in pGBK-T7 (Arabidopsis thaliana) (UniProt Q9M0A4)
T7 sequence: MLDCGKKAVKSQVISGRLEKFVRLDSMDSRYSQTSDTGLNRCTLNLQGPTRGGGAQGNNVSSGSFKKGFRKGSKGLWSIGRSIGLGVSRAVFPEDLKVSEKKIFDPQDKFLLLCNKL

[8] = substrate: T8, C terminus of CNGC14 (aa411-726) in pGBK-T7 (Arabidopsis thaliana) (UniProt Q9SJA4)
T8 sequence: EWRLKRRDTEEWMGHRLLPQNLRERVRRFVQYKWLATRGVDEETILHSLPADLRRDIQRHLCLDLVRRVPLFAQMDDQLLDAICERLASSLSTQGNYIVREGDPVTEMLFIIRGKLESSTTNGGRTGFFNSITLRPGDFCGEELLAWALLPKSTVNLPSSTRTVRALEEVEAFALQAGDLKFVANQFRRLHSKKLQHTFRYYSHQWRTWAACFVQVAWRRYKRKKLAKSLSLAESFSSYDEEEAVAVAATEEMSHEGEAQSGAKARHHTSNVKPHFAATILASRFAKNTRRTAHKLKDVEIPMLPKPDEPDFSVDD

B1: CPK1 in pGAD-T7 (enzyme, UniProt Q06850 1-610)
chain: MGNTCVGPSRNGFLQSVSAAMWRPRDGDDSASMSNGDIASEAVSGELRSRLSDEVQNKPPEQVTMPKPGTDVETKDREIRTESKPETLEEISLESKPETKQETKSETKPESKPDPPAKPKKPKHMKRVSSAGLRTESVLQRKTENFKEFYSLGRKLGQGQFGTTFLCVEKTTGKEFACKSIAKRKLLTDEDVEDVRREIQIMHHLAGHPNVISIKGAYEDVVAVHLVMECCAGGELFDRIIQRGHYTERKAAELTRTIVGVVEACHSLGVMHRDLKPENFLFVSKHEDSLLKTIDFGLSMFFKPDDVFTDVVGSPYYVAPEVLRKRYGPEADVWSAGVIVYILLSGVPPFWAETEQGIFEQVLHGDLDFSSDPWPSISESAKDLVRKMLVRDPKKRLTAHQVLCHPWVQVDGVAPDKPLDSAVLSRMKQFSAMNKFKKMALRVIAESLSEEEIAGLKEMFNMIDADKSGQITFEELKAGLKRVGANLKESEILDLMQAADVDNSGTIDYKEFIAATLHLNKIEREDHLFAAFTYFDKDGSGYITPDELQQACEEFGVEDVRIEELMRDVDQDNDGRIDYNEFVAMMQKGSITGGPVKMGLEKSFSIALKL
binding [1]: no binding | binding [2]: no binding | binding [3]: binds | binding [4]: no binding | binding [5]: binds | binding [6]: no binding | binding [7]: binds | binding [8]: no binding
